Assay results taken from the supplement of paper PMC10849652.
The list shows a part of the results.

Protein sequences, listed by entry. Tags and fused reporters are not part of them. Lines headed by an entry give the natural chain unless they say otherwise; changes in a name come on top.
UniProt P30740: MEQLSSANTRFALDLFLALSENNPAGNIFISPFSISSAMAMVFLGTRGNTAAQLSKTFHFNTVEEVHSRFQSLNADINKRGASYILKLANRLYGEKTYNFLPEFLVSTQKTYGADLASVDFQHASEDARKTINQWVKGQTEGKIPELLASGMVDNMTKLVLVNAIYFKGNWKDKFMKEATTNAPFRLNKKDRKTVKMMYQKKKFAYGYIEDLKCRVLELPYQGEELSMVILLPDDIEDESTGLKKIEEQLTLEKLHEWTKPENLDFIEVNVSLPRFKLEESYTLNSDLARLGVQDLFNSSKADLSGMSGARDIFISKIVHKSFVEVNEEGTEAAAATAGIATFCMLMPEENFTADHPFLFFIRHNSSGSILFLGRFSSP
UniProt Q9NPR2: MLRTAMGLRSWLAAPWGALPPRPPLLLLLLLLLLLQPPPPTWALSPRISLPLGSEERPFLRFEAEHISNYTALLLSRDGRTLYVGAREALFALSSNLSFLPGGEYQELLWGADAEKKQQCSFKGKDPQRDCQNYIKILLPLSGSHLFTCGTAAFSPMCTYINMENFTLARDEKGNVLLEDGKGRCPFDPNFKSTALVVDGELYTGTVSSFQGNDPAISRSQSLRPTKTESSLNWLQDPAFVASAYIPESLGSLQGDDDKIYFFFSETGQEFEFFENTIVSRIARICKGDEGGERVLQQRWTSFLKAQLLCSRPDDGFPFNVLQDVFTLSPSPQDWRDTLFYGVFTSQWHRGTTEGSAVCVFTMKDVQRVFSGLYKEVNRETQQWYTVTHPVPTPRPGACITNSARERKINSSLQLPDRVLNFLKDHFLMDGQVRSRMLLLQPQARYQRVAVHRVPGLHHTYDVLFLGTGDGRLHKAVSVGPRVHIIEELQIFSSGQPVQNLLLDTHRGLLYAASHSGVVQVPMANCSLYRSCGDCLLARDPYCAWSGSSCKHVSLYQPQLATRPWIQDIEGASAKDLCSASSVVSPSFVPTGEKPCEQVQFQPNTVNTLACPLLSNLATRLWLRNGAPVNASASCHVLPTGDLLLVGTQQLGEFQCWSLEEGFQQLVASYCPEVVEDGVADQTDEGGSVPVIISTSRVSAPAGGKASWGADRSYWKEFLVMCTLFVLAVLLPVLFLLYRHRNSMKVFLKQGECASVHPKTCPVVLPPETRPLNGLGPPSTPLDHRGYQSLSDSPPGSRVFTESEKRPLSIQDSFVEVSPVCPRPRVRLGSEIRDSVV
UniProt P29353: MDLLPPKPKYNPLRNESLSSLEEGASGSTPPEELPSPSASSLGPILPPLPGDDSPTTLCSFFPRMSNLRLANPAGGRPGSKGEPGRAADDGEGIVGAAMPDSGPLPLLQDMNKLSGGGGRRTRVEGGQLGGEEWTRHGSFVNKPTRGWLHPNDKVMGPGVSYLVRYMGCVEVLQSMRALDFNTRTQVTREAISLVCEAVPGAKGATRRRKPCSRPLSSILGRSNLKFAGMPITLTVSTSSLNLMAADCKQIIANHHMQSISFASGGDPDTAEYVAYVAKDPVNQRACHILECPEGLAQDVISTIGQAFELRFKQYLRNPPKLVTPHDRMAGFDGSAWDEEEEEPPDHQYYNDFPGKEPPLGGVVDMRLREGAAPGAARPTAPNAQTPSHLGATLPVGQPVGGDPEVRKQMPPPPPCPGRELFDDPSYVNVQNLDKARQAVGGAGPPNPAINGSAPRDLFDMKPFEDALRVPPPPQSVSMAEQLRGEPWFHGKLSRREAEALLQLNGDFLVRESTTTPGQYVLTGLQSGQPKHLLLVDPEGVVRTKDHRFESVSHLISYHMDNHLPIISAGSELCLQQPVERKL
UniProt Q9H173: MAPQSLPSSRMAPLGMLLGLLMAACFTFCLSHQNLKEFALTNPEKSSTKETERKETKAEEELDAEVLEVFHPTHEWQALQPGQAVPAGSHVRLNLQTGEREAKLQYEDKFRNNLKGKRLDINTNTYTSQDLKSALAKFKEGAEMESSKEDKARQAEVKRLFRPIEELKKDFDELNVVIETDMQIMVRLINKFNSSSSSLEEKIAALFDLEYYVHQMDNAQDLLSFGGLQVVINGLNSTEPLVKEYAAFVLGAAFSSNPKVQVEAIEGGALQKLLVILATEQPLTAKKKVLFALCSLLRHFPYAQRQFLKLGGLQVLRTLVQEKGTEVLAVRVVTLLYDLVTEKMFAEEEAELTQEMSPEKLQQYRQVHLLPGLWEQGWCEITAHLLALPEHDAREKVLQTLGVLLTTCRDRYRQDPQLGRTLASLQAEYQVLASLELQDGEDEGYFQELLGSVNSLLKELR
UniProt Q15637: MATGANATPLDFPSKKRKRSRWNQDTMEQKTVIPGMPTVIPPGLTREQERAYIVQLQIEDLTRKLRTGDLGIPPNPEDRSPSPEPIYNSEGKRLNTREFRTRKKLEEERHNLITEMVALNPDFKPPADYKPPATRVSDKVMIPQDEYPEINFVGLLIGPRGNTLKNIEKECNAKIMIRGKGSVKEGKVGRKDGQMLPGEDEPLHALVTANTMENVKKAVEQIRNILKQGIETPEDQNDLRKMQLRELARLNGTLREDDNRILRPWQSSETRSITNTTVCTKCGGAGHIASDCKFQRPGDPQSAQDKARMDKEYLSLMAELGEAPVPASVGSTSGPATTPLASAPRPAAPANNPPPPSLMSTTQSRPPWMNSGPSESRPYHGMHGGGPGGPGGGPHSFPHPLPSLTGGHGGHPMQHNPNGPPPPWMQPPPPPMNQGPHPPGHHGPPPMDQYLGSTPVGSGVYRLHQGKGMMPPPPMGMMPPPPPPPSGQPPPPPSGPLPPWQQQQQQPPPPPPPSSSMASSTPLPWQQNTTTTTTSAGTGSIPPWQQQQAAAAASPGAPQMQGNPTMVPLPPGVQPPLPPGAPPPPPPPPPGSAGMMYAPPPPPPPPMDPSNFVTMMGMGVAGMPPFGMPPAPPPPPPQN
UniProt Q99442: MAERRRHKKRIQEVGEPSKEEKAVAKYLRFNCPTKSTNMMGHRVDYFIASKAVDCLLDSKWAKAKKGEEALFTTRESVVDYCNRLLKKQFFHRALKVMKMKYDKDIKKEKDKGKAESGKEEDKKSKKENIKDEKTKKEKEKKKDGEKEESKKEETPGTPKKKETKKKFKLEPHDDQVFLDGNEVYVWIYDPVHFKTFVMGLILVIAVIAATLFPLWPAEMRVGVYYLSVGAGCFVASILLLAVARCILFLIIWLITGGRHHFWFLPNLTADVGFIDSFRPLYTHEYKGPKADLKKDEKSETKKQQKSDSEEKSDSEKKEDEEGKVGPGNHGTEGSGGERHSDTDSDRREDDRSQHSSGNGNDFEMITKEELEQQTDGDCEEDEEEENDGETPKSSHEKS
UniProt P60468, whole entry, looked up: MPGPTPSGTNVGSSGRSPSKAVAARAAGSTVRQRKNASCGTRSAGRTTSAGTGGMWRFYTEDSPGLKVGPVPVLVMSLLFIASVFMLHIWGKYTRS
UniProt Q96EB6: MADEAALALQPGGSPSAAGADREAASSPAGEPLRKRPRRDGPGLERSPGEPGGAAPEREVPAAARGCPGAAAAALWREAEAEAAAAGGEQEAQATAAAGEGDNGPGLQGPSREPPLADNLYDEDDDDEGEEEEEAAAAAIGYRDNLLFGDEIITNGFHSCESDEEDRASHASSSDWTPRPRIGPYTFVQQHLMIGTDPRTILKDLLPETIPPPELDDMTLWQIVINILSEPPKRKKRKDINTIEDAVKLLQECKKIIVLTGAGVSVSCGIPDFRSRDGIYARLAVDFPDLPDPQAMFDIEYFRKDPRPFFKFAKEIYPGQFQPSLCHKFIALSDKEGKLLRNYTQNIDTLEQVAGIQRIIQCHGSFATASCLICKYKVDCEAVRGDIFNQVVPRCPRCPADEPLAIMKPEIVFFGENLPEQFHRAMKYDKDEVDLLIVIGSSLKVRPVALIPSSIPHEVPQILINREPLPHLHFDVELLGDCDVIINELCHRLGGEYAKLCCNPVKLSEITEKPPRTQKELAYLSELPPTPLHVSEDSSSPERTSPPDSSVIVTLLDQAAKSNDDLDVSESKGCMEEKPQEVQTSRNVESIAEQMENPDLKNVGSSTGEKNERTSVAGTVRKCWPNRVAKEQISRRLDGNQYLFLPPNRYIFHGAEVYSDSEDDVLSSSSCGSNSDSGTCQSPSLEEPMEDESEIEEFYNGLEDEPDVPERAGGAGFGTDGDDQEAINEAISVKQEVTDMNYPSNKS
UniProt Q12872: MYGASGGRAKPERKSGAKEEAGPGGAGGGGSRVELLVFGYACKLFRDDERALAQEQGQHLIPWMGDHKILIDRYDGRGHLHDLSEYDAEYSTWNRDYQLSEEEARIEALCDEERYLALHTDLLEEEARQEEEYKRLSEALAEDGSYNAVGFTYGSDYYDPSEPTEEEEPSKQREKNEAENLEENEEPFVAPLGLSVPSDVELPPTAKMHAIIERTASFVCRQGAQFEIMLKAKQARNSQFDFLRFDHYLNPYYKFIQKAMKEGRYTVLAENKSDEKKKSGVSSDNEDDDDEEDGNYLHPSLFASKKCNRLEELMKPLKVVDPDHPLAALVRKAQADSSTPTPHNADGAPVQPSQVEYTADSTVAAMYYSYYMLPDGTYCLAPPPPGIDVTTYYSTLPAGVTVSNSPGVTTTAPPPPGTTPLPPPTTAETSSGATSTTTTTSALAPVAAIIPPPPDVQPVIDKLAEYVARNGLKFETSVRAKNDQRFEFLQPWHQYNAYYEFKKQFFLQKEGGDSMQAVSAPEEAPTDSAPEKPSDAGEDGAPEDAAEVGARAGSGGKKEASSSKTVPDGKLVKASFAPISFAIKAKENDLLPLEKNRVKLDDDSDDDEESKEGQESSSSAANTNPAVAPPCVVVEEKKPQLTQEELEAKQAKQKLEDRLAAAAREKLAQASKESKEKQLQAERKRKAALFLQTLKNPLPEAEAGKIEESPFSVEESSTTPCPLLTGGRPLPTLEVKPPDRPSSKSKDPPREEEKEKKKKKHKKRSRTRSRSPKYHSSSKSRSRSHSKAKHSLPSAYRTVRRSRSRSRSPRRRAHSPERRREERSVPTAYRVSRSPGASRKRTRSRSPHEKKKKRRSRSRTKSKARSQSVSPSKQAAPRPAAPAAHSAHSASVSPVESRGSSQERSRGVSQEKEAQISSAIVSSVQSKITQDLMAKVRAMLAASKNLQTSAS
UniProt Q9H9S3, whole entry, looked up: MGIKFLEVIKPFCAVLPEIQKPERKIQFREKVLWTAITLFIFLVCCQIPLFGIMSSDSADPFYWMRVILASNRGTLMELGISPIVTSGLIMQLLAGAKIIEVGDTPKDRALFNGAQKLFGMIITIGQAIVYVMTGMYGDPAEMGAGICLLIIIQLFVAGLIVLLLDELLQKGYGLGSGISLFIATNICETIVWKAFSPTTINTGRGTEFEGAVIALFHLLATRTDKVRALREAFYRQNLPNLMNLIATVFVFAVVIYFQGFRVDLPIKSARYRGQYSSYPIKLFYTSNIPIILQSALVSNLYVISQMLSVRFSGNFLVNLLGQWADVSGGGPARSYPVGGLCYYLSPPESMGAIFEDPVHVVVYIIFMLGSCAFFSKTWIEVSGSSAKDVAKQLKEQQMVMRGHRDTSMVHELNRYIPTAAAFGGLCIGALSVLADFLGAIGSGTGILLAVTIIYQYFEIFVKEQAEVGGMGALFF
UniProt P50454: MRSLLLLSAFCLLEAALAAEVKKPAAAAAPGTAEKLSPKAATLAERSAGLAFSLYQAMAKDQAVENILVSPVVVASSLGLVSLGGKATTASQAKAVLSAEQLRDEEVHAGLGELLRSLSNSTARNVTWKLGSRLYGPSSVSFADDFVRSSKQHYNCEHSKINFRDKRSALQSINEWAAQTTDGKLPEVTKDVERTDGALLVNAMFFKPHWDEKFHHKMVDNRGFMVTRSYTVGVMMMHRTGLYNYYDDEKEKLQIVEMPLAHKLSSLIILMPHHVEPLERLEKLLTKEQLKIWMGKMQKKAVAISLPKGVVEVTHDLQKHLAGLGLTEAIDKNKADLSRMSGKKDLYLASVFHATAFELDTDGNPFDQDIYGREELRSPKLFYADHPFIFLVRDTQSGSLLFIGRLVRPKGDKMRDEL
UniProt Q9BRV8: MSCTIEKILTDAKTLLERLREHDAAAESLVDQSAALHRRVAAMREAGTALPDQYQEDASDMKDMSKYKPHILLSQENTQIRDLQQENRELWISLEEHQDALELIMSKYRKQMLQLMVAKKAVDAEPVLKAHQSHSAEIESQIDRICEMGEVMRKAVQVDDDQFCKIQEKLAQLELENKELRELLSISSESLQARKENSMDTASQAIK
UniProt P50452: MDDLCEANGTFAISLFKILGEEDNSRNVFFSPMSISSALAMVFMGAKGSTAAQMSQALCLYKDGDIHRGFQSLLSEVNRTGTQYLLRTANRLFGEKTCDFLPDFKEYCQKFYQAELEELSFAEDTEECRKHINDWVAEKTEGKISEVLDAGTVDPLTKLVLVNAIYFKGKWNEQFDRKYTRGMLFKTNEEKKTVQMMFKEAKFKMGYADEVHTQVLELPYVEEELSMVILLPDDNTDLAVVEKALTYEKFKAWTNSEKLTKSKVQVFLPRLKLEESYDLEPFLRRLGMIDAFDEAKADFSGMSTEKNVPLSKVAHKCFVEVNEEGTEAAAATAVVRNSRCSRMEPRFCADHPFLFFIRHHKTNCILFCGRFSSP

What was measured:
Assay in all cases: log2 fold change, soluble protein after heating vs DMSO (PISA); higher = thermal stabilisation; K562 cells, 10 uM, 30 min; active = over 0.2 and 3.5 SD of the protein, either way, in both replicates (recomputed)
[1] = compound: CS(=O)(=O)c1ccc(-c2cnc(N)c(C(=O)Nc3ccccc3)n2)cc1
How it was run: (§1)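 K562 cells at 2×10^6 cells/mL were treated with 10 μM compound for 30 min. Aliquots were heated for 3 min across 48°C-58°C, pooled, and extracted in PBS with 0.5% NP-40 at 4°C; soluble protein was the supernatant after 21,000xg for 90 min. Soluble protein was quantified by TMTpro 16plex LC-MS/MS with channel sums equalised, and reported as log2 fold change in thermal stability against DMSO controls, with values from duplicates.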

crizotinib = compound: C[C@@H](Oc1cc(-c2cnn(C3CCNCC3)c2)cnc1N)c1c(Cl)ccc(F)c1Cl [crizotinib]
How it was run: as §1

[2] = compound: C[C@@H]1COCCN1C2=NC(=NC(=C2)C3(CC3)S(=O)(=O)C)C4=C5C=CNC5=CC=C4
How it was run: as §1

[3] = compound: C[C@H](C1=CC=C(C=C1)C(=O)NC2=C3C=CNC3=NC=C2)N
How it was run: as §1

duvelisib = compound: C[C@H](Nc1ncnc2nc[nH]c12)c1cc2cccc(Cl)c2c(=O)n1-c1ccccc1 [duvelisib]
How it was run: as §1

gandotinib = compound: Cc1cc(Nc2cc(CN3CCOCC3)c3nc(C)c(Cc4ccc(Cl)cc4F)n3n2)n[nH]1 [gandotinib]
How it was run: as §1

tozasertib = compound: Cc1cc(Nc2cc(N3CCN(C)CC3)nc(Sc3ccc(NC(=O)C4CC4)cc3)n2)n[nH]1 [tozasertib]
How it was run: as §1

[4] = compound: Cc1cc(SCc2sc(-c3ccc(C(F)(F)F)cc3)nc2C)ccc1OCC(=O)O
How it was run: as §1

doramapimod = compound: Cc1ccc(-n2nc(C(C)(C)C)cc2NC(=O)Nc2ccc(OCCN3CCOCC3)c3ccccc23)cc1 [doramapimod]
How it was run: as §1

ispinesib = compound: Cc1ccc(C(=O)N(CCCN)[C@@H](c2nc3cc(Cl)ccc3c(=O)n2Cc2ccccc2)C(C)C)cc1 [ispinesib]
How it was run: as §1

bafetinib = compound: Cc1ccc(NC(=O)c2ccc(CN3CC[C@H](N(C)C)C3)c(C(F)(F)F)c2)cc1Nc1nccc(-c2cncnc2)n1 [bafetinib]
How it was run: as §1

[5] = compound: Cc1cccc(CC(=O)N2CCc3c2ccc(-c2cn(C)c4ncnc(N)c24)c3F)n1
How it was run: as §1

nilotinib = compound: Cc1cn(-c2cc(NC(=O)c3ccc(C)c(Nc4nccc(-c5cccnc5)n4)c3)cc(C(F)(F)F)c2)cn1 [nilotinib]
How it was run: as §1

[6] = compound: Cc1nc(Nc2n[nH]c3c2CN(C(=O)N[C@H](CN(C)C)c2ccccc2)C3(C)C)c2sccc2n1
How it was run: as §1

dasatinib = compound: Cc1nc(Nc2ncc(C(=O)Nc3c(C)cccc3Cl)s2)cc(N2CCN(CCO)CC2)n1 [dasatinib]
How it was run: as §1

[7] = compound: Cc1ncc(-c2ccnc(Nc3ccc(S(C)(=O)=O)cc3)n2)n1C(C)C
How it was run: as §1

[8] = compound: Cn1cc(-c2ccc3c(c2)CCN3C(=O)Cc2cccc(C(F)(F)F)c2)c2c(N)ncnc21
How it was run: as §1

[9] = compound: Cn1cc(-c2ccc3nnc(C(F)(F)c4ccc5ncccc5c4)n3n2)cn1
How it was run: as §1

tipifarnib = compound: Cn1cncc1[C@@](N)(c1ccc(Cl)cc1)c1ccc2c(c1)c(-c1cccc(Cl)c1)cc(=O)n2C [tipifarnib]
How it was run: as §1

mubritinib = compound: FC(F)(F)c1ccc(/C=C/c2nc(COc3ccc(CCCCn4ccnn4)cc3)co2)cc1 [mubritinib]
How it was run: as §1

Measured: log2 fold change

SERPINB1 (UniProt P30740)
inactive: [1] 0.013 | crizotinib -0.012 | [2] 0.073 | [3] -0.037 | duvelisib 0.025 | gandotinib -0.164 | tozasertib 0.011 | [4] 0.016 | doramapimod 0 | ispinesib 0.054 | bafetinib -0.042 | [5] 0.038 | nilotinib -0.017 | [6] 0.001 | dasatinib -0.026 | [7] -0.002 | [8] 0.047 | [9] -0.02 | tipifarnib -0.027 | mubritinib 0.052

SH3BGRL (UniProt O75368)
inactive: [1] -0.086 | crizotinib 0.068 | [2] 0.088 | [3] -0.123 | duvelisib 0.055 | gandotinib 0.115 | tozasertib 0.019 | [4] -0.015 | doramapimod 0 | ispinesib 0.113 | bafetinib -0.003 | [5] -0.127 | nilotinib 0.015 | [6] -0.013 | dasatinib -0.028 | [7] -0.003 | [8] 0.086 | [9] 0.018 | tipifarnib -0.074 | mubritinib 0.033

SEMA4B (UniProt Q9NPR2)
inactive: [1] 0.039 | crizotinib -0.195 | [2] -0.143 | [3] 0.045 | duvelisib -0.013 | gandotinib -0.032 | tozasertib -0.012 | [4] -0.044 | doramapimod 0.074 | ispinesib -0.277 | bafetinib 0.028 | [5] -0.014 | nilotinib 0.015 | [6] -0.198 | dasatinib -0.024 | [7] 0.035 | [8] 0.085 | [9] -0.314 | tipifarnib 0.071 | mubritinib 0.163

SFXN4 (UniProt Q6P4A7)
inactive: [1] 0.034 | crizotinib 0.021 | [2] 0.055 | [3] -0.017 | duvelisib 0.018 | gandotinib -0.049 | tozasertib -0.032 | [4] -0.002 | doramapimod -0.02 | ispinesib 0.032 | bafetinib -0.049 | [5] -0.111 | nilotinib -0.018 | [6] 0.148 | dasatinib 0.037 | [7] -0.151 | [8] -0.055 | [9] -0.019 | tipifarnib -0.03 | mubritinib -0.017

SHC1 isoform 6 (UniProt P29353)
inactive: [1] -0.013 | crizotinib 0.011 | [2] 0.045 | [3] -0.04 | duvelisib 0.004 | gandotinib -0.014 | tozasertib 0.011 | [4] 0.019 | doramapimod -0.041 | ispinesib -0.022 | bafetinib -0.011 | [5] -0.035 | nilotinib 0.084 | [6] -0.014 | dasatinib 0.033 | [7] 0.002 | [8] -0.004 | [9] -0.035 | tipifarnib -0.006 | mubritinib 0.037

SIL1 (UniProt Q9H173)
inactive: [1] 0.007 | crizotinib -0.008 | [2] -0.024 | [3] 0.14 | duvelisib 0.016 | gandotinib 0.013 | tozasertib 0.03 | [4] -0.016 | doramapimod 0.076 | ispinesib 0.102 | bafetinib 0.063 | [5] 0.043 | nilotinib -0.045 | [6] 0.021 | dasatinib 0.031 | [7] -0.117 | [8] -0.074 | [9] -0.002 | tipifarnib 0.115 | mubritinib -0.08

SF1 isoform 6 (UniProt Q15637)
inactive: [1] 0.137 | crizotinib 0.027 | [2] -0.235 | [3] -0.142 | duvelisib -0.001 | gandotinib 0.045 | tozasertib -0.06 | [4] 0.037 | doramapimod 0.042 | ispinesib 0.022 | bafetinib -0.172 | [5] -0.115 | nilotinib -0.187 | [6] 0.052 | dasatinib 0.023 | [7] -0.026 | [8] 0.104 | [9] -0.096 | tipifarnib -0.178 | mubritinib -0.048

Pulled one by one from above, 2 records:
SEMA4B (UniProt Q9NPR2)
inactive: [1] 0.039 | crizotinib -0.195 | [2] -0.143 | [3] 0.045 | duvelisib -0.013 | gandotinib -0.032 | tozasertib -0.012 | [4] -0.044 | doramapimod 0.074 | ispinesib -0.277 | bafetinib 0.028 | [5] -0.014 | nilotinib 0.015 | [6] -0.198 | dasatinib -0.024 | [7] 0.035 | [8] 0.085 | [9] -0.314 | tipifarnib 0.071 | mubritinib 0.163

SF1 isoform 6 (UniProt Q15637)
inactive: [1] 0.137 | crizotinib 0.027 | [2] -0.235 | [3] -0.142 | duvelisib -0.001 | gandotinib 0.045 | tozasertib -0.06 | [4] 0.037 | doramapimod 0.042 | ispinesib 0.022 | bafetinib -0.172 | [5] -0.115 | nilotinib -0.187 | [6] 0.052 | dasatinib 0.023 | [7] -0.026 | [8] 0.104 | [9] -0.096 | tipifarnib -0.178 | mubritinib -0.048

Later entries:

SEC62 (UniProt Q99442)
inactive: [1] 0.001 | crizotinib 0.103 | [2] -0.032 | [3] -0.049 | duvelisib -0.01 | gandotinib 0.012 | tozasertib -0.003 | [4] -0.007 | doramapimod -0.06 | ispinesib 0.088 | bafetinib -0.044 | [5] -0.007 | nilotinib 0.059 | [6] 0.063 | dasatinib 0.082 | [7] -0.017 | [8] 0.026 | [9] 0.021 | tipifarnib 0.014 | mubritinib -0.056

SEC61B (UniProt P60468)
inactive: [1] 0.004 | crizotinib 0.075 | [2] -0.027 | [3] -0.024 | duvelisib 0.013 | gandotinib 0.064 | tozasertib -0.015 | [4] -0.092 | doramapimod 0 | ispinesib 0.005 | bafetinib -0.102 | [5] -0.045 | nilotinib 0.021 | [6] 0.012 | dasatinib 0.039 | [7] -0.046 | [8] -0.011 | [9] -0.016 | tipifarnib 0.148 | mubritinib 0.029

SF1 isoform 5 (UniProt Q15637)
inactive: [1] 0.003 | crizotinib 0.05 | [2] -0.041 | [3] -0.04 | duvelisib -0.008 | gandotinib 0.061 | tozasertib -0.013 | [4] -0.025 | doramapimod -0.047 | ispinesib 0.046 | bafetinib -0.055 | [5] -0.013 | nilotinib 0.017 | [6] -0.001 | dasatinib 0.063 | [7] -0.021 | [8] 0.019 | [9] 0.012 | tipifarnib -0.027 | mubritinib 0.005

SIRT1 (UniProt Q96EB6)
inactive: [1] 0.043 | crizotinib 0.042 | [2] -0.012 | [3] -0.044 | duvelisib 0.026 | gandotinib -0.03 | tozasertib 0.032 | [4] 0.015 | doramapimod 0.006 | ispinesib 0.012 | bafetinib 0.04 | [5] 0.044 | nilotinib 0.008 | [6] -0.053 | dasatinib -0.099 | [7] 0.062 | [8] -0.013 | [9] -0.007 | tipifarnib -0.031 | mubritinib -0.009

SFSWAP isoform 2 (UniProt Q12872)
inactive: [1] -0.114 | crizotinib 0.006 | [2] 0.019 | [3] -0.172 | duvelisib 0.078 | gandotinib -0.032 | tozasertib 0.095 | [4] 0.035 | doramapimod -0.036 | ispinesib 0.019 | bafetinib 0.139 | [5] 0.007 | nilotinib -0.022 | [6] -0.267 | dasatinib 0.051 | [7] -0.068 | [8] -0.013 | [9] -0.026 | tipifarnib 0.104 | mubritinib -0.048

SEC61A2 (UniProt Q9H9S3)
inactive: [1] -0.025 | crizotinib 0.106 | [2] 0.056 | [3] -0.125 | duvelisib 0.015 | gandotinib -0.08 | tozasertib 0.035 | [4] -0.036 | doramapimod 0.004 | ispinesib 0.016 | bafetinib -0.009 | [5] 0.013 | nilotinib -0.029 | [6] -0.006 | dasatinib 0.068 | [7] -0.016 | [8] 0.022 | [9] -0.018 | tipifarnib 0.031 | mubritinib 0.004

SERPINH1 (UniProt P50454)
inactive: [1] 0.033 | crizotinib 0.082 | [2] -0.019 | [3] 0.015 | duvelisib -0.003 | gandotinib 0.031 | tozasertib 0.004 | [4] -0.009 | doramapimod -0.007 | ispinesib 0.061 | bafetinib -0.02 | [5] -0.003 | nilotinib -0.003 | [6] 0.024 | dasatinib 0.017 | [7] -0.01 | [8] -0.009 | [9] -0.009 | tipifarnib 0.023 | mubritinib -0.027

SIKE1 (UniProt Q9BRV8)
inactive: [1] 0.048 | crizotinib 0.084 | [2] -0.09 | [3] -0.024 | duvelisib 0.098 | gandotinib 0.018 | tozasertib 0.011 | [4] 0.045 | doramapimod 0.019 | ispinesib -0.041 | bafetinib -0.031 | [5] 0.035 | nilotinib -0.126 | [6] -0.095 | dasatinib -0.061 | [7] -0.029 | [8] -0.009 | [9] -0.013 | tipifarnib 0.013 | mubritinib 0.06

SERPINB8 (UniProt P50452)
inactive: [1] 0.004 | crizotinib 0.063 | [2] -0.042 | [3] -0.073 | duvelisib -0.043 | gandotinib 0.006 | tozasertib -0.06 | [4] -0.12 | doramapimod -0.072 | ispinesib 0.029 | bafetinib -0.121 | [5] 0.041 | nilotinib 0.067 | [6] -0.03 | dasatinib 0.113 | [7] 0.01 | [8] 0.001 | [9] 0.051 | tipifarnib 0.086 | mubritinib 0.105
